Article PMC4306915
Results are given in words; binding and its absence hold for the method and conditions named. Some results given as binding are weak or reduced against the parent protein; the word gives no strength.

Target: T1, Wnt5a (UniProt P41221)
T1 sequence: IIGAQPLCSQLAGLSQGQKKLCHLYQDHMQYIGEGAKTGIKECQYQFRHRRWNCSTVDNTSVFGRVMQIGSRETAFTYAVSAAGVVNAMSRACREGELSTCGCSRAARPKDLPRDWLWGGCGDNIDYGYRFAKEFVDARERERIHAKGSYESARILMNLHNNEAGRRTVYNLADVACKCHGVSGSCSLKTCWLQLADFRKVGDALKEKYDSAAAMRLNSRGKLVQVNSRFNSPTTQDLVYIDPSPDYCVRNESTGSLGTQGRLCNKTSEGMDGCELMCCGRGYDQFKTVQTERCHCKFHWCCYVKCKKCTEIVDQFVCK
Assay: ELISA; 384 well plate coated with 1 μg/ml purified Fz2CRD-IgG (or 2 μg/ml control-IgG); 500 ng/ml Wnt5a added with 250 μg/ml anti-GST antibody (control Ab) or mAb5A16 or 10 μg/ml purified sFRP2 for 2 h at room temperature; detected with biotinylated monoclonal anti-Wnt5a antibody; both purified

B1: secreted frizzled-related protein2 (sFRP2) (protein, UniProt Q96HF1 25-295)
chain: LFLFGQPDFSYKRSNCKPIPANLQLCHGIEYQNMRLPNLLGHETMKEVLEQAGAWIPLVMKQCHPDTKKFLCSLFAPVCLDDLDETIQPCHSLCVQVKDRCAPVMSAFGFPWPDMLECDRFPQDNDLCIPLASSDHLLPATEEAPKVCEACKNKNDDDNDIMETLCKNDFALKIKVKEITYINRDTKIILETKSKTIYKLNGVSERDLKKSVLWLKDSLQCTCEEMNDINAPYLVMGQKQGGELVITSVKRWQKGQREFKRISRSIRKLQC
With B1 the binding was “binds”.
